Source: the supplement of paper PMC12889115
Some of the results follow. These are raw signals, not scaled to a control.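 Primary screen: polymyxin B was added at a level permeabilizing Salmonella outer membranes while sparing inner membranes. DMSO wells, both with and without polymyxin B, established maximum growth. Plate-to-plate variation meant each plate was ranked on its own, and the lowest-OD600 compounds were selected as hits.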

Tested on: Salmonella enterica serovar Typhimurium SL1344
Experiment: bacterial growth OD600 after 18 h with compound and polymyxin B; higher = more bacterial growth (less inhibition)
Details: 50 µM, Mueller-Hinton broth

Row | Structure (SMILES) | bacterial growth OD600 (polymyxin B 0.75 µg/mL) | bacterial growth OD600 (polymyxin B 1 µg/mL)
1 | Cc1ncc2c(c1CNC(=O)CSc1ncccn1)CCN(C(=O)c1cc3ccccc3o1)C2 | 0.879 | 
2 | COC(=O)c1c(S(=O)(=O)NCCc2ccccc2)sc2c1CCN(C(=O)c1ccccc1C)C2 | 0.957 | 
3 | CC(Cn1ccc2ccccc21)NC1CCN(c2ccc(C(=O)N(C)C)cc2)CC1 (stereo not drawn) | 0.851 | 
4 | CCC(=O)N[C@@H]1c2ccccc2C2(CCN(Cc3ccc(C)s3)CC2)[C@H]1OCCOC | 0.964 | 
5 | COc1ccccc1CCNC1CCN(c2ccc(C(=O)NCc3ccc4c(c3)OCO4)cc2)CC1 | 0.922 | 
6 | COc1ccc(CN2CCC(O)(Cc3cc(-c4ccccc4)no3)CC2)c(F)c1 |  | 0.84
7 | CC(C)Oc1ccc(CN2CCCC(CO)(Cc3ccccc3)C2)cc1 (stereo not drawn) |  | 0.897
8 | CCOc1cc(CN2CCC(C3(CC)NC(=O)N(CCc4scnc4C)C3=O)CC2)ccc1O (stereo not drawn) | 0.945 | 
